Results deposited as PubChem BioAssay AID504786 (Drosophila RNAi Screening Center, 2011)

- Purpose: 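Fly genes required for HIF-dependent transcription when hypoxia is mimicked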 (primary screen)
- Cells: Drosophila S2 cells with a stable HIF luciferase reporter
- Knock-down reagent: long dsRNA against Drosophila genes, about 0.2 µg dsRNA per well of a 384-well plate
- Timing: three days of knock-down, then 20 h of DFO before reading
- Conditions: desferrioxamine (DFO) at 100 µM, an iron chelator that mimics hypoxia, for 20 h
- Read-out: 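HIF reporter luminescence in cells given 100 µM DFO for 20 h, using the mouse ldh-a hypoxia-response element, scored as per-plate z-scores; higher means greater loss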
- Direction: z-score: higher = stronger loss of HIF reporter signal
The deposit covers about 21,000 reagents; this is an unselected part of those with a known target gene and a result. 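Primary screen; positive scores mean lost reporter signal, so the sign may be inverted from the usual convention.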 The numbers tell different reagents against one gene apart. A plus sign joins genes that one reagent is predicted to hit.

gene | reagent | z-score, replicate 1 | z-score, replicate 2 | z-score, replicate 3 | z-score, replicate 4
CG12011 | 1 | -0.4 | -0.6 | – | –
CG31681 | 1 | -0.5 | -0.1 | – | –
CG7006 | 1 | -0.1 | 1.7 | – | –
CG2964 | 1 | 0.2 | 0.5 | – | –
CG42656 | 1 | -0.3 | -0.4 | – | –
CG17321 | 1 | -0.4 | -0.1 | – | –
CCKLR-17D3 (Cholecystokinin-like receptor at 17D3) | 1 | 0 | -0.7 | – | –
CCKLR-17D3 (Cholecystokinin-like receptor at 17D3) | 2 | -0.4 | -0.4 | – | –
CG12121 | 1 | -0.4 | -0.3 | – | –
CG17075 | 1 | -0.3 | -0.4 | – | –
DCTN3-p24 (Dynactin 3, p24 subunit) | 1 | -0.3 | -0.4 | – | –
Pi3K68D (Phosphatidylinositol 3-kinase 68D) | 1 | 2.3 | 1.4 | – | –
CG7137 | 1 | -0.3 | -0.5 | – | –
CG13739 | 1 | 0.3 | 0.5 | – | –
gammaCOP (Coat Protein (coatomer) gamma) | 1 | -0.3 | 1.8 | – | –
CG8187 | 1 | -0.2 | -0.2 | – | –
CG8630 | 1 | -0.7 | -1 | – | –
Sirt2 (Sirtuin 2) | 1 | 0.1 | 0 | – | –
Srg2 + CG42826 | 1 | 0 | 0.6 | – | –
Srg2 + CG42826 | 2 | -0.1 | -0.1 | – | –
Galt (Galactose-1-phosphate uridylyltransferase) | 1 | -0.2 | -0.2 | – | –
CG14627 | 1 | 0.6 | 0.5 | – | –
CG9550 | 1 | -0.3 | -0.6 | – | –
Ehbp1 (Eps15 homology domain containing protein-binding protein 1) | 1 | -0.2 | -0.5 | – | –
CG5556 | 1 | 0 | -0.5 | – | –
Cyp303a1 (Cytochrome P450 303a1) | 1 | -0.5 | 0.2 | – | –
schuy (schumacher-levy) | 1 | -0.3 | -0.4 | – | –
OdsH (Ods-site homeobox) | 1 | -0.4 | 0.2 | – | –
et (eye transformer) | 1 | -0.1 | 0 | – | –
CG18747 | 1 | -0.3 | -0.4 | – | –
stc (shuttle craft) | 1 | -0.2 | 0 | – | –
CG14142 | 1 | -0.2 | -0.4 | – | –
CG8128 | 1 | -0.2 | -0.2 | – | –
l(2)k10201 (lethal (2) k10201) | 1 | -0.3 | -0.4 | – | –
l(2)k10201 (lethal (2) k10201) | 2 | -0.2 | -0.2 | – | –
bru2 (bruno 2) | 1 | 0.4 | 0.1 | – | –
bru2 (bruno 2) | 2 | 2 | 2.4 | – | –
bru2 (bruno 2) | 3 | 0.1 | -0.2 | – | –
bru2 (bruno 2) | 4 | -0.3 | -0.5 | – | –
bru2 (bruno 2) | 5 | 4.6 | 2.8 | – | –
CG8833 | 1 | -0.3 | -0.2 | – | –
CG12895 | 1 | -0.3 | -0.5 | – | –
CG15822 | 1 | -0.1 | -0.5 | – | –
CG15822 | 2 | -0.5 | 0.9 | – | –
grk (gurken) | 1 | -0.2 | 0.2 | – | –
gogo (golden goal) | 1 | -0.2 | -0.3 | – | –
gogo (golden goal) | 2 | -0.2 | 0 | – | –
CG32379 | 1 | 0 | 1 | – | –
MFS3 (Major Facilitator Superfamily Transporter 3) | 1 | -0.3 | -1 | – | –
CG12730 | 1 | -0.1 | -0.2 | – | –
Abl (Abl tyrosine kinase) | 1 | -0.5 | -1 | – | –
CG14453 | 1 | -0.4 | -0.3 | 0 | -0.4
sw + Sdic4 + Sdic3 + 2 more | 1 | -0.4 | -0.2 | – | –
Srp54 (Splicing regulatory protein 54) | 1 | 1.3 | 2 | – | –
CG13760 | 1 | -0.2 | 0.2 | – | –
Ube4B (Ubiquitination factor E4B) | 1 | -0.3 | -0.5 | – | –

Quoted from the listing, 7 entries:
gene | reagent | z-score, replicate 1 | z-score, replicate 2 | z-score, replicate 3 | z-score, replicate 4
CG15822 | 1 | -0.1 | -0.5 | – | –
CG15822 | 2 | -0.5 | 0.9 | – | –
grk (gurken) | 1 | -0.2 | 0.2 | – | –
gogo (golden goal) | 1 | -0.2 | -0.3 | – | –
gogo (golden goal) | 2 | -0.2 | 0 | – | –
CG32379 | 1 | 0 | 1 | – | –
MFS3 (Major Facilitator Superfamily Transporter 3) | 1 | -0.3 | -1 | – | –
